Data reported in PubChem BioAssay AID264 (DTP/NCI, 2004).
The list does not hold the whole screen: it gathers tests that were run many times, whatever their T/C, doses with no T/C, and many T/C values between a quarter and a half above the control. Other doses and runs of a compound stand elsewhere. T/C is the treated group as % of the vehicle group. Schedules are NCI's codes, read here as Q, the interval in days (D) or hours (H), X, the number of doses. Some T/C values are negative: the treated tumours shrank. Some entries hold several experiments; the values are given in rising order. Some T/C values are followed by the survivors on the day toxicity was checked, most often the fifth; without a count, all were alive then. Some entries give survivors of the animals treated and no T/C: the source holds a T/C of zero for them, seemingly a mark for toxic or unscored doses. Counts of survivors are from the toxicity check (mostly the fifth day) where no day follows; animals may have died later.

Tested on: nude mice, LX-1 lung xenograft intrarenal, tumor weight T/C
Assay: NCI In Vivo Anticancer Drug Screen. Data for tumor model Human Lung LX-1 Xenograft (intrarenal inoculation) in NU/NU Swiss (nude) mice
Conditions: T/C endpoint: mean tumor weight change, higher T/C = larger tumour; for T/C: evaluated on day 11
Method in brief: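 Compound-treated mice carrying transplanted tumors were compared with vehicle-treated controls. Tumor size was the measured end point, and the value is the treated-group measurement divided by the control-group measurement (T/C).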

[1] = dose: 16.0 mg/kg/injection, schedule: Q01DX010 (sc), vehicle: saline
[2] = dose: 32.0 mg/kg/injection, schedule: Q01DX010 (sc), vehicle: saline
[3] = dose: 64.0 mg/kg/injection, schedule: Q01DX010 (sc), vehicle: saline
[4] = dose: 300.0 mg/kg/injection, schedule: Q04DX003 (sc), vehicle: water
[5] = dose: 50.0 mg/kg/injection, schedule: Q01DX010 (sc), vehicle: saline
[6] = dose: 400.0 mg/kg/injection, schedule: Q01DX010 (sc), vehicle: Klucel (hydroxypropylcellulose) (HPC)

For Cc1c(N)nc([C@H](CC(N)=O)NC[C@H](N)C(N)=O)nc1C(=O)N[C@H](C(=O)N[C@H](C)[C@@H](O)[C@H](C)C(=O)N[C@H](C(=O)NCCc1nc(-c2nc(C(=O)NCCC[S+](C)C)cs2)cs1)[C@@H](C)O)C(OC1OC(CO)C(O)C(O)C1OC1OC(CO)C(O)C(OC(N)=O)C1O)c1cnc[nH]1 (stereo not given in full), the T/C (dose: 8.0 mg/kg/injection, schedule: Q01DX010 (sc), vehicle: saline) was 16, 54, 57, 76, 106 % of control [2 of 3 alive on day 11], the T/C [1] was 15 [2 of 2 alive on day 11], 17, 30, 44 % of control and the survivor count [1] was 0 of 3 on day 11. For the same compound, the T/C [2] was 3, 14 [2 of 3 alive on day 11], 28 % of control, the survivor count [2] was 0 of 3 on day 11 and 1 of 3 on day 11 and the T/C [3] was 15 % of control [4 of 6 alive on day 11]. For the same compound, the survivor count [3] was 0 of 2 on day 11 and 0 of 3 on day 11, the survivor count (dose: 64.0 mg/kg/injection, schedule: Q04DX003 (sc), vehicle: saline) was 0 of 3 on day 11 and the survivor count (dose: 128.0 mg/kg/injection, schedule: Q04DX003 (sc), vehicle: saline) was 0 of 3 on day 11.

Nc1nc([Se])c2ncn(C3OC(CO)C(O)C3O)c2n1 (stereo not given) was tested, and the T/C (dose: 4.0 mg/kg/injection, schedule: Q01DX010 (sc), vehicle: saline) was 140 % of control, the survivor count [1] was 0 of 3 on day 11 and 1 of 3 on day 11 and the survivor count [2] was 0 of 3 on day 11. The survivor count (dose: 53.3 mg/kg/injection, schedule: Q04DX003 (sc), vehicle: saline) was 1 of 2 on day 11.

For CCC[CH2][Sn]1([CH2]CCC)[O]C2C(CO)OC(n3ccc(N)nc3=O)C2[O]1 (stereo not given), the T/C (dose: 6.0 mg/kg/injection, schedule: Q04DX003 (sc), vehicle: Klucel (hydroxypropylcellulose) (HPC)) was 133 % of control.

For CCN(Cc1ccc(Cl)c(Cl)c1)c1ccc2nc(N)nc(N)c2c1C, the survivor count (dose: 75.0 mg/kg/injection, schedule: Q04DX003 (sc), vehicle: water) was 2 of 6 on day 11, the survivor count (dose: 150.0 mg/kg/injection, schedule: Q04DX003 (sc), vehicle: water) was 0 of 6 on day 11 and the survivor count [4] was 0 of 6 on day 11.

For COC(=O)C12OCC34C(CC5C(C)=CC(=O)C(O)C5(C)C3C(O)C1O)OC(=O)C(OC(=O)CC(C)C)C24 (stereo not given), the survivor count (dose: 6.0 mg/kg/injection, schedule: Q04DX003 (sc), vehicle: saline + alcohol) was 3 of 6 on day 11, the survivor count (dose: 12.0 mg/kg/injection, schedule: Q04DX003 (sc), vehicle: saline + alcohol) was 0 of 6 on day 11 and the survivor count (dose: 24.0 mg/kg/injection, schedule: Q04DX003 (sc), vehicle: saline + alcohol) was 0 of 6 on day 11.

In the case of O=P(O)(NCCCl)NCCCl, the survivor count (dose: 300.0 mg/kg/injection, schedule: Q04DX003 (sc), vehicle: saline) is reported as 0 of 3 on day 11 and the survivor count (dose: 600.0 mg/kg/injection, schedule: Q04DX003 (sc), vehicle: saline) is reported as 0 of 3 on day 11.

For Cc1noc(N)c1N, the T/C [4] was 147 % of control [5 of 6 alive on day 11] and the survivor count (dose: 2400.0 mg/kg/injection, schedule: Q04DX003 (sc), vehicle: water) was 1 of 6 on day 11.

COc1cccc2c1C(=O)c1c(O)c3c(c(O)c1C2=O)CC(O)(C(=O)CO)CC3OC1CC(N)C(O)C(C)O1 (stereo not given) was tested, and the survivor count (dose: 96.0 mg/kg/injection, schedule: Q01DX010 (sc), vehicle: saline) was 1 of 3 on day 11.

COc1cccc2c1C(=O)c1c(O)c3c(c(O)c1C2=O)C[C@H](O)C[C@@H]3OC1CC(N)C(O)C(C)O1 (stereo not given in full) was tested, and the survivor count [5] was 0 of 3 on day 11.

For c1ccc2c(c1)-c1ccccc1C1NC21 (stereo not given), the survivor count (dose: 300.0 mg/kg/injection, schedule: Q04DX003 (sc), vehicle: saline with Tween-80) was 0 of 6 on day 11.

With CN1C(=O)CC2(CCN(CCCC(=O)c3ccc(F)cc3)CC2)C1=O the T/C (dose: 37.5 mg/kg/injection, schedule: Q04DX003 (sc), vehicle: suspension in saline) was 125 % of control.

For COc1cc2cc(c1Cl)N(C)C(=O)CC(OC(=O)CC(C)C)C1(C)OC1C(C)C1CC(O)(NC(=O)O1)C(OC)/C=C/C=C(C)C2 (stereo not given), the survivor count (dose: 100.0 micrograms/kg/injection, schedule: Q01DX010 (sc), vehicle: saline + alcohol) was 0 of 3 on day 11.

Nc1ccccc1N was tested, and the T/C (dose: 50.0 mg/kg/injection, schedule: Q01DX010 (sc), vehicle: Klucel (hydroxypropylcellulose) (HPC)) was 149 % of control [2 of 2 alive on day 11], the survivor count (dose: 200.0 mg/kg/injection, schedule: Q01DX010 (sc), vehicle: Klucel (hydroxypropylcellulose) (HPC)) was 0 of 3 on day 11 and the survivor count [6] was 0 of 3 on day 11. For the same compound, the survivor count (dose: 800.0 mg/kg/injection, schedule: Q01DX010 (sc), vehicle: Klucel (hydroxypropylcellulose) (HPC)) was 0 of 3 on day 11.

With CC1=CC(=NN=c2cc(C)n([O-])c(C)c2)C=C(C)[N+]1=O the T/C (dose: 600.0 mg/kg/injection, schedule: Q04DX003 (sc), vehicle: suspension in saline) was 138 % of control and the T/C (dose: 2400.0 mg/kg/injection, schedule: Q04DX003 (sc), vehicle: suspension in saline) was 144 % of control [5 of 6 alive on day 11].

N=C(N)CCCCCCCCC(=N)N was tested, and the survivor count (dose: 37.5 mg/kg/injection, schedule: Q04DX003 (sc), vehicle: saline) was 0 of 6 on day 11.

COC1/C=C/C=C(/C)Cc2cc(O)c(Cl)c(c2)N(C)C(=O)CC(OC(=O)C(C)C)C2(C)OC2C(C)C2CC1(O)NC(=O)O2 (stereo not given) was tested, and the survivor count (dose: 8.0 mg/kg/injection, schedule: Q04DX003 (sc), vehicle: saline + alcohol) was 1 of 6 on day 11.

With Nc1n[n+](-c2ccc(Cl)cc2)no1 the T/C (dose: 50.0 mg/kg/injection, schedule: Q04DX003 (sc), vehicle: water) was 135 % of control and the survivor count (dose: 200.0 mg/kg/injection, schedule: Q04DX003 (sc), vehicle: water) was 0 of 6 on day 11.

For O=C(Nc1nncs1)c1ccncc1, the T/C (dose: 400.0 mg/kg/injection, schedule: Q01DX010 (sc), vehicle: saline with Tween-80) was 127 % of control [2 of 3 alive on day 11].

In the case of CN1C(=O)NC(c2ccc(Cl)cc2)(c2ccc(Cl)cc2)C1=O, the T/C (dose: 200.0 mg/kg/injection, schedule: Q01DX010 (sc), vehicle: saline with Tween-80) is reported as 146 % of control [2 of 2 alive on day 11].

With N=[N+]=CC(=O)OCC(N)C(=O)O (stereo not given) the survivor count (dose: 25.0 mg/kg/injection, schedule: Q01DX010 (sc), vehicle: saline) was 0 of 3 on day 11, the survivor count [5] was 0 of 3 on day 11 and the survivor count (dose: 100.0 mg/kg/injection, schedule: Q01DX010 (sc), vehicle: saline) was 0 of 3 on day 11.

For C[Si](C)(C)OSc1ccccc1[N+](=O)[O-], the T/C (dose: 1200.0 mg/kg/injection, schedule: Q04DX003 (sc), vehicle: Klucel (hydroxypropylcellulose) (HPC)) was 145 % of control.

With CN(C)/N=N/c1nc[nH]c1C(N)=O the T/C (dose: 100.0 mg/kg/injection, schedule: Q04DX003 (sc), vehicle: Klucel (hydroxypropylcellulose) (HPC)) was 1, 21, 36, 66 % of control, the T/C (dose: 200.0 mg/kg/injection, schedule: Q04DX003 (sc), vehicle: Klucel (hydroxypropylcellulose) (HPC)) was -47 [2 of 2 alive on day 11], 6, 12, 34 % of control and the survivor count [6] was 1 of 3 on day 11. The T/C (dose: 400.0 mg/kg/injection, schedule: Q04DX003 (sc), vehicle: Klucel (hydroxypropylcellulose) (HPC)) was -14, 12, 19 % of control and the T/C (dose: 800.0 mg/kg/injection, schedule: Q04DX003 (sc), vehicle: Klucel (hydroxypropylcellulose) (HPC)) was -40, -4 [2 of 3 alive on day 11], 20 [2 of 3 alive on day 11], 80 % of control.
